Results published in publication PMC6120632.
These are yes or no findings as the source states them, for the method shown. Some results given as binding are weak or reduced against the parent protein; the word gives no strength.

By UniProt entry, the sequences of proteins in these tests, tags left out. Residues count along the entry.
UniProt P41273: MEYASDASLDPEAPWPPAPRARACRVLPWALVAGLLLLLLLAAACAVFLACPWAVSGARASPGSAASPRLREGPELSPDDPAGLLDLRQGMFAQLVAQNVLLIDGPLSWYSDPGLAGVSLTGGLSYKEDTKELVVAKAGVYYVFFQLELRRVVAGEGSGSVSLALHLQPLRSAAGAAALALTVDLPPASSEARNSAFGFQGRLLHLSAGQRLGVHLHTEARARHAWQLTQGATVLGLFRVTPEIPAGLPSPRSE
UniProt P52799, residues 28-333: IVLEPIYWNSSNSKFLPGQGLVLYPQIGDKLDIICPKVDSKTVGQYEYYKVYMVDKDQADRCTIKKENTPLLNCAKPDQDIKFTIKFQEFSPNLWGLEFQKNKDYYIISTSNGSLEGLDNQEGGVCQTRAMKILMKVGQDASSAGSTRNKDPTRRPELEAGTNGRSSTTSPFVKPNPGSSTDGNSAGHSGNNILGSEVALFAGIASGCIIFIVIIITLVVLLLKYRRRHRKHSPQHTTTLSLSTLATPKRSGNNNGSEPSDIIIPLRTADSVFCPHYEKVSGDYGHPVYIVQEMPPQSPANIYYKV
UniProt Q07011, residues 24-186: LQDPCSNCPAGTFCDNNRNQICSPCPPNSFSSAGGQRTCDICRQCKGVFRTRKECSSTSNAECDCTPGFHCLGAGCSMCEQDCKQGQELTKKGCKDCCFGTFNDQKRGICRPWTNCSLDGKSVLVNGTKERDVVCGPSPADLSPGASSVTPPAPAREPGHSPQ

What was measured:
Assay in all cases: flow cytometry on cells; genome-scale CRISPR knockout library of Cas9-expressing cells (HEK293; NCI-SNU-1 for TNFRSF9) stained with oligomeric recombinant probe; cells that had lost binding sorted, gRNA enrichment by sequencing (MAGeCK)
[1] = target: TNFSF9 (human (endogenous in NCI-SNU-1)) (UniProt P41273)
[2] = target: T1, CADM1 (human (endogenous in HEK293)) (UniProt Q9BY67)
T1 sequence: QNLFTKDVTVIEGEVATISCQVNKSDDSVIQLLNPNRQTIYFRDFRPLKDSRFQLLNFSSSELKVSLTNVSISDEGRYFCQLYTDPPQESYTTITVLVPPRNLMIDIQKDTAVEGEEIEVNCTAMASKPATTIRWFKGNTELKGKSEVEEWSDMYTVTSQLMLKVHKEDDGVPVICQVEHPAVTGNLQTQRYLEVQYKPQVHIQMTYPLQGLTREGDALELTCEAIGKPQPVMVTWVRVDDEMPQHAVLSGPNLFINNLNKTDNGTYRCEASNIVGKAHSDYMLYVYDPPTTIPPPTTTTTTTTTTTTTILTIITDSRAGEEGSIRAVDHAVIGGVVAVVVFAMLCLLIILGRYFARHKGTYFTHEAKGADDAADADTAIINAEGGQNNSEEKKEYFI

[3] = target: EFNB2 (human (endogenous in HEK293)) (UniProt P52799)

TNFRSF9 (from UniProt Q07011 24-186) (receptor)
binding [1]: binds

B1: CRTAM (receptor, UniProt O95727 18-287)
chain: SLTNHTETITVEEGQTLTLKCVTSLRKNSSLQWLTPSGFTIFLNEYPALKNSKYQLLHHSANQLSITVPNVTLQDEGVYKCLHYSDSVSTKEVKVIVLATPFKPILEASVIRKQNGEEHVVLMCSTMRSKPPPQITWLLGNSMEVSGGTLHEFETDGKKCNTTSTLIIHTYGKNSTVDCIIRHRGLQGRKLVAPFRFEDLVTDEETASDALERNSLSSQDPQQPTSTVSVTEDSSTSEIDKEEKEQTTQDPDLTTEANPQYLGLARKKSG
binding [2]: binds

B2: EPHB1 (receptor, UniProt P54762 18-540)
chain: MEETLMDTRTATAELGWTANPASGWEEVSGYDENLNTIRTYQVCNVFEPNQNNWLLTTFINRRGAHRIYTEMRFTVRDCSSLPNVPGSCKETFNLYYYETDSVIATKKSAFWSEAPYLKVDTIAADESFSQVDFGGRLMKVNTEVRSFGPLTRNGFYLAFQDYGACMSLLSVRVFFKKCPSIVQNFAVFPETMTGAESTSLVIARGTCIPNAEEVDVPIKLYCNGDGEWMVPIGRCTCKPGYEPENSVACKACPAGTFKASQEAEGCSHCPSNSRSPAEASPICTCRTGYYRADFDPPEVACTSVPSGPRNVISIVNETSIILEWHPPRETGGRDDVTYNIICKKCRADRRSCSRCDDNVEFVPRQLGLTECRVSISSLWAHTPYTFDIQAINGVSSKSPFPPQHVSVNITTNQAAPSTVPIMHQVSATMRSITLSWPQPEQPNGIILDYEIRYYEKEHNEFNSSMARSQTNTARIDGLRPGMVYVVQVRARTVAGYGKFSGKMCFQTLTDDDYKSELREQLP
binding [3]: binds
